We go through 42 sequences from PMC7819943, “Rice protein-binding microarrays: a tool to detect cis-acting elements near promoter regions in rice”.

Amino acid sequences for entries named in this document (tags omitted).
UniProt Q0JBA9, entry or part of it: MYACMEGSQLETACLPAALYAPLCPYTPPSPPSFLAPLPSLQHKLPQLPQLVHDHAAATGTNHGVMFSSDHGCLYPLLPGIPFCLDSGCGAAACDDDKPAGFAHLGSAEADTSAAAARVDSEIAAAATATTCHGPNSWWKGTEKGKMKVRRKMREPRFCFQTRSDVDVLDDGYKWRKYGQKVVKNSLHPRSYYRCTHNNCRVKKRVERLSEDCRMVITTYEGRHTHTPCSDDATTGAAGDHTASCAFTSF

The list shows a part of the results.

The assay has as its target OsWRKY34 (Oryza sativa, UniProt Q0JBA9 1-250). The assay can be described thus: protein-binding microarray (RPBM); PBS, 2% BSA, 51.3 ng/ul salmon testes DNA, 50 uM zinc acetate, 200 nM TF, 25 C, 1 h; high values mean tight binding. To be noted: protein: recombinant; tags: N-terminal polyhistidine and DsRed monomer fusion (pET32a); label: CyDye5-dUTP incorporated in the synthesized complementary strand; 3' TTTTT single-stranded linker to array surface; dsDNA, one strand shown. In outline:
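The binding signal for each feature is its fluorescence intensity in arbitrary units. An Axon 4000B scanner was used to read a custom Agilent array that had been made double-stranded with Cy5-dUTP primer extension, blocked with 2% BSA, incubated at 25 °C for 1 h with 200 nM protein in PBS, 2% BSA, salmon testes DNA and 50 µM zinc acetate, and washed. The protein was an N-terminal polyhistidine–DsRed transcription factor fusion from E. coli BL21-CodonPlus, purified on Ni–NTA.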
Turning to “TTTTCCGTGTTTTCCGTTTCTGTTTGTTTGGCTTTTTTTTCGGAGTCACCTAGTGCAG”, the binding signal was 18600 fluorescence intensity (a.u.).
As to “CCCCTACGCAGCCGTCGCCGTGCCTTCCTCGTCCTCCACCCGGAGTCACCTAGTGCAG”, the binding signal is 10600 fluorescence intensity (a.u.).
With “ACTGACATGTGGGCCCAATAATTTATTTTCATTATTTTACCGGAGTCACCTAGTGCAG”, the binding signal is 8310 fluorescence intensity (a.u.).
The figure for “ACACACACTTTACAGGTTTACAGCCCAACTTATCCGTGCACGGAGTCACCTAGTGCAG” is 9890 fluorescence intensity (a.u.).
“GGTAGTACTATGGCAGAGTTATTTTCAGTCTTTCATTTTTCGGAGTCACCTAGTGCAG”: the binding signal is 11900 fluorescence intensity (a.u.).
Then “GCTCCTATGCTGCTTGGTTGTTTTCACAAGAATTTCTTGGCGGAGTCACCTAGTGCAG”, with 8610 fluorescence intensity (a.u.); and “CGCCTTCGCCTTGCTCGTCTTCGTCTCCGCCTCCTGCGACCGGAGTCACCTAGTGCAG”, with 8380 fluorescence intensity (a.u.).
On to “TCATCTTCTCCTTTCTTTGCTTTCACATCTGGATAACTCTCGGAGTCACCTAGTGCAG”, for which the binding signal is 8750 fluorescence intensity (a.u.).
Turning to “AATACTACCTATCCACCATACTCTCAGCCACCTACTTTCTCGGAGTCACCTAGTGCAG”, the binding signal was 8430 fluorescence intensity (a.u.).
Then “AAAAGTGTCGTTCTATGTCCTCAGTAGTGTCCCATAAAAACGGAGTCACCTAGTGCAG”, with 8260 fluorescence intensity (a.u.); and “CAGTGGGCGGTAAGGGTGTTAGGTGTAAAAAAGCAATCGGCGGAGTCACCTAGTGCAG”, with 8180 fluorescence intensity (a.u.).
The figure for “CTGTGCATTGTTTTTCATACTGTTTTCATTGTATCCAACTCGGAGTCACCTAGTGCAG” is 12200 fluorescence intensity (a.u.); for “GGGGTTTTATCCTTGTATTGTTGCTTTGGTTTGGTTTTTGCGGAGTCACCTAGTGCAG” it is 9830 fluorescence intensity (a.u.).
Then “TGATCTGATCTGACAATTTGGGCGGGCTGTGTTTTATGAACGGAGTCACCTAGTGCAG”, with 12900 fluorescence intensity (a.u.); and “CTCTCCAACAACTTCACTATTTCACTCTCCAAACCATATTCGGAGTCACCTAGTGCAG”, with 8070 fluorescence intensity (a.u.); and “AGGGTTGACAGGGGCATTTTCGCATTTTATGAAAATACTGCGGAGTCACCTAGTGCAG”, with 8140 fluorescence intensity (a.u.).
For “ACAACTTTCGCCTCACCTCGAGTCTCATAACACAGACACACGGAGTCACCTAGTGCAG”, the binding signal is 8090 fluorescence intensity (a.u.).
The figure for “TAGATCGCGCATTGTGTTTTGATTTGTGGTTGTTCGTGTACGGAGTCACCTAGTGCAG” is 9560 fluorescence intensity (a.u.); for “CTCGCGCCATCTCTCCTCTTCTCTCTCTCTCTCTAAACCACGGAGTCACCTAGTGCAG” it is 8860 fluorescence intensity (a.u.).
For the sequence “ATTTTCTCGCGCCACGTTTAAATCGTTTTTATTTAAATTTCGGAGTCACCTAGTGCAG”, the binding signal is 9620 fluorescence intensity (a.u.).
Turning to “GTCATCTTCTATTGGCTGCATCGATCTCGAATTATTACTTCGGAGTCACCTAGTGCAG”, the binding signal was 8580 fluorescence intensity (a.u.).
As to “TGTCAGCATTTCTTGGTTTTCTTCTCCTGCTTGTTTCCTTCGGAGTCACCTAGTGCAG”, the binding signal is 8800 fluorescence intensity (a.u.).
On to “GCCGTCGTCGTGGTCTCCGTTCTGCTTCGTTTTTTTACCGCGGAGTCACCTAGTGCAG”, for which the binding signal was 10200 fluorescence intensity (a.u.).
Then “ATACTGTTGCGCTGCTCTTTATGTTGATTATTTATTTTTCCGGAGTCACCTAGTGCAG”, with 11400 fluorescence intensity (a.u.).
In the case of “TTAATGATCTTTCTTTTTTCGCTTGCCTTGAAAATCTTCGCGGAGTCACCTAGTGCAG”, the binding signal was 9400 fluorescence intensity (a.u.).
Take “CTACCATAGTACTACCATCTCTCTCTTTCTCTCTCCTCAACGGAGTCACCTAGTGCAG”: the binding signal was 11800 fluorescence intensity (a.u.).
Then “TCGCGATCTCCGTGTCCCGCCCGCCGTCCATCGACCTCTGCGGAGTCACCTAGTGCAG”, with 9900 fluorescence intensity (a.u.).
With “GGGATTCAGTTGCTTTGACTTTTCTCCCCTCATATCGTTCCGGAGTCACCTAGTGCAG”, the binding signal was 15700 fluorescence intensity (a.u.).
Then “CCTATGTATGATCACGTCTCCTTCTGTTCTTGGTCTGTCACGGAGTCACCTAGTGCAG”, with 10500 fluorescence intensity (a.u.).
As to “CACCAAAAATTGGCCTTGTCAACCACAACTTTTTTCCATACGGAGTCACCTAGTGCAG”, the binding signal was 9310 fluorescence intensity (a.u.).
The figure for “CAACGAGGAGCGATGCATATCTAGCAGTTTTGTTTTTCATCGGAGTCACCTAGTGCAG” is 8420 fluorescence intensity (a.u.); for “GTCTTTTTAAAATTTCTCTCCCATCTTTTTTATTAAAAAACGGAGTCACCTAGTGCAG” it is 8610 fluorescence intensity (a.u.).
Then “AAACTAATATATGTTATCAACTTCTACTCACTTGTTTTTCCGGAGTCACCTAGTGCAG”, with 8420 fluorescence intensity (a.u.); and “GCTAGTCAAATTTGCCTTACTAACTGCTCCGCGTAATTATCGGAGTCACCTAGTGCAG”, with 8500 fluorescence intensity (a.u.); and “GGCCGGTGATCCTTCCTTAATTTCCCTATCTAGCTTTGTCCGGAGTCACCTAGTGCAG”, with 11600 fluorescence intensity (a.u.).
Then “ACCAGGGCACATCCAGTGAAAGTCAAGCTTCCCTTGCCGTCGGAGTCACCTAGTGCAG”, with 8550 fluorescence intensity (a.u.).
As for “ATCACCATTTACTCCTATTGCCCTATTGGCATCACATCCACGGAGTCACCTAGTGCAG”, the binding signal was 8890 fluorescence intensity (a.u.).
The figure for “GTGTTTGTGCTTCAGTTAACACCGTTACATGTTCTTAACACGGAGTCACCTAGTGCAG” is 8160 fluorescence intensity (a.u.); for “AGCCGGATCACTTTGATGTCATCTTCAATCATACCATTTTCGGAGTCACCTAGTGCAG” it is 8630 fluorescence intensity (a.u.); for “GCCTCATCCCGTTGCCATCTCCAAGAGCTCGCCTGCCACTCGGAGTCACCTAGTGCAG” it is 8840 fluorescence intensity (a.u.).
Regarding “ATAATGCATGCCTAGGCTCGAGTTCTTTGTGCATTTGGAGCGGAGTCACCTAGTGCAG”, the binding signal was 8860 fluorescence intensity (a.u.).
For “TTCGTGTTTTGCTGGAGTTGGAGTTGCTGCATTGGGTTTACGGAGTCACCTAGTGCAG”, the binding signal is 10700 fluorescence intensity (a.u.).
